{
  "sequences": {"note": "By UniProt entry, the sequences of proteins in these tests, tags left out.", "UniProt P17844": "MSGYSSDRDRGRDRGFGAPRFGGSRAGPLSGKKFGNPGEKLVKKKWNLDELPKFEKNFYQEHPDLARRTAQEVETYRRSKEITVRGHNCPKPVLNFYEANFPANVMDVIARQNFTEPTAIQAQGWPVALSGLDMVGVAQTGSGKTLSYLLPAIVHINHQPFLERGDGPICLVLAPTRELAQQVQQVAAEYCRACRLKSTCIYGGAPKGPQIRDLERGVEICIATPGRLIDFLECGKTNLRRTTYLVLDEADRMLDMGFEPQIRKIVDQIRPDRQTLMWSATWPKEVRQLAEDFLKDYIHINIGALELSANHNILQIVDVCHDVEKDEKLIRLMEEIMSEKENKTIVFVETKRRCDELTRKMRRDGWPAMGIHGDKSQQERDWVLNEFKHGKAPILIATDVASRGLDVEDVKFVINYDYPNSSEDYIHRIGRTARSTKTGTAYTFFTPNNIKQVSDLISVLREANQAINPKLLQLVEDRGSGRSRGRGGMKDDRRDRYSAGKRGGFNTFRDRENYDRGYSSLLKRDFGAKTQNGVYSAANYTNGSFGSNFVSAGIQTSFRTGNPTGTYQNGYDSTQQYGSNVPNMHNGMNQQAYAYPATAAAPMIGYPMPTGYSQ"},
  "source": "paper PMC12617877",
  "biological_target": "T1, RBM39-Flag (RNA-binding Motif Protein 39, Flag-tagged) (human (cDNA from Jurkat cell mRNA)) (UniProt Q14498)",
  "T1 sequence": "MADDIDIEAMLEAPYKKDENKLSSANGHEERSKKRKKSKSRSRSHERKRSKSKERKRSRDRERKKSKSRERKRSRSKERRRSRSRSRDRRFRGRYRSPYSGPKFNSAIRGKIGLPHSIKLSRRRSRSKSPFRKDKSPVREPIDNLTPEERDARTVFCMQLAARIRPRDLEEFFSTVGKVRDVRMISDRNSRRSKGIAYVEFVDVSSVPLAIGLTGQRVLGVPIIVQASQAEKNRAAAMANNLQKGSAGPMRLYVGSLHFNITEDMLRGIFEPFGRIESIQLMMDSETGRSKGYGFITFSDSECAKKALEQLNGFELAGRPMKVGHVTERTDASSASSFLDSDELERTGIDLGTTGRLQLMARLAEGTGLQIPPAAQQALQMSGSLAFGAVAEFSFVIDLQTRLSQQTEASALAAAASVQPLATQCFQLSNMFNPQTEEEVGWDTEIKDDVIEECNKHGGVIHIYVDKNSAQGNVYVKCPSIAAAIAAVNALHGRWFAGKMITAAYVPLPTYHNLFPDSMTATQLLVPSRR",
  "experiment": "co-IP; HEK293T transfected with RBM39-Flag or YTHDC1-Flag and DDX5-HA or GFP-HA (control), 48 h; lysates immunoprecipitated with Flag beads, immunoblot; NP-40 lysis buffer",
  "note": "No constants are given. Whether binding was seen depends on the method and setting. Binding seen in cells or lysates may run through a third protein. Some entries that bind do so weakly or less than the wild type. Sequences can lack the tags named with a protein.",
  "data": [
    {"substance": "DDX5-HA (from UniProt P17844 1-614)", "values": [
      {"measurement": "binding", "value": "binds"}
    ]}
  ]
}
